Results: the supplement of paper PMC10849652
This is one part of the list.

Sequences of proteins named here, by UniProt entry; tags and fusion partners are left off. A change or cut given only in a name is not applied to a line headed by its entry.
UniProt Q9NWT6: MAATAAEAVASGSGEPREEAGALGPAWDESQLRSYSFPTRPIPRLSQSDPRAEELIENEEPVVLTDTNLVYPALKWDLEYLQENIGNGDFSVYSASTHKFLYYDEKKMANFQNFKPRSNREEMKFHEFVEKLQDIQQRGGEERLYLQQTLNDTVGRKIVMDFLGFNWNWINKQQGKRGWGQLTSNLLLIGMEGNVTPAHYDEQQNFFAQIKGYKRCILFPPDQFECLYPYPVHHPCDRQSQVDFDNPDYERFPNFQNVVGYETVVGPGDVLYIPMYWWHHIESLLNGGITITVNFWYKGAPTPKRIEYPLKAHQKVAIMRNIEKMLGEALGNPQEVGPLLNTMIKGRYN
UniProt P04035: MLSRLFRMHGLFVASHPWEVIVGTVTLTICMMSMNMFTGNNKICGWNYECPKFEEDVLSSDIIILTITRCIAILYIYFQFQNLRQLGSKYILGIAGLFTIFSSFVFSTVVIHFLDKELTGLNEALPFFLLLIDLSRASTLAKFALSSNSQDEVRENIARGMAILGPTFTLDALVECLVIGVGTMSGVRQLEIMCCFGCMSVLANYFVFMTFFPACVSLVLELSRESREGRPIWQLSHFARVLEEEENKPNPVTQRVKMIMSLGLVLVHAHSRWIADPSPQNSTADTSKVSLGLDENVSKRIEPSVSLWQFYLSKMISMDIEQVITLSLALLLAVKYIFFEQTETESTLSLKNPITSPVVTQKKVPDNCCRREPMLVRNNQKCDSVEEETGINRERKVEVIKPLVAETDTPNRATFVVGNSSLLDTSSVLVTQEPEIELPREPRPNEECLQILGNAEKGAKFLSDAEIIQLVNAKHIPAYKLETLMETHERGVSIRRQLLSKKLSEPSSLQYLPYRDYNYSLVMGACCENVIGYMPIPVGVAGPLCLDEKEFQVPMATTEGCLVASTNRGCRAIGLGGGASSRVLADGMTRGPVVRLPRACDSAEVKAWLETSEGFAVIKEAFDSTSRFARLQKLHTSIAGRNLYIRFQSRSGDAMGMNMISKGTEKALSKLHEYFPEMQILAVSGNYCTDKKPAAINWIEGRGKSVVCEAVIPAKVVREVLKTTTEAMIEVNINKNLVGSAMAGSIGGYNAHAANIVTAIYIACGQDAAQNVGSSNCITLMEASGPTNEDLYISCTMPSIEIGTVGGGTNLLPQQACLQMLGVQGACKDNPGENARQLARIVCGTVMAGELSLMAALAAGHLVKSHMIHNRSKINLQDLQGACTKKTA
UniProt Q86VS8: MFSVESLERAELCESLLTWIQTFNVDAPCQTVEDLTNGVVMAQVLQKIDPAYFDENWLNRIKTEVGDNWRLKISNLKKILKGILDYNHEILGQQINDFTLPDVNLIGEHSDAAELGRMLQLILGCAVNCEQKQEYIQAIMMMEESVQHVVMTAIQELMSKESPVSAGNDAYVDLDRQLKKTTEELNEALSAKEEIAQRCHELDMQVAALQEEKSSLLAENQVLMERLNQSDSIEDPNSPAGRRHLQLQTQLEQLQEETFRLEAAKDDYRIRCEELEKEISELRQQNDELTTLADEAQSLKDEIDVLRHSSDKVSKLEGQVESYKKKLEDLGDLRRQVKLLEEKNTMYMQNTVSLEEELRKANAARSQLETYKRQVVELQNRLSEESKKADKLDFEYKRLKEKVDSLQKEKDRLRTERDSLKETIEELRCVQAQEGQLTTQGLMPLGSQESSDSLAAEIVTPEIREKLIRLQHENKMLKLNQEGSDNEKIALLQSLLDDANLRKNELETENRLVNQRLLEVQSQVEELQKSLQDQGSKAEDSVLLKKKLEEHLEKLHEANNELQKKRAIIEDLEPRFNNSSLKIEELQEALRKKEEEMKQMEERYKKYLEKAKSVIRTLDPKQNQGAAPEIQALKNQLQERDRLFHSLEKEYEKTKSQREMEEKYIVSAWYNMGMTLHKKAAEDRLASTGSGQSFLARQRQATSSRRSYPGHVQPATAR
UniProt Q9P2D0: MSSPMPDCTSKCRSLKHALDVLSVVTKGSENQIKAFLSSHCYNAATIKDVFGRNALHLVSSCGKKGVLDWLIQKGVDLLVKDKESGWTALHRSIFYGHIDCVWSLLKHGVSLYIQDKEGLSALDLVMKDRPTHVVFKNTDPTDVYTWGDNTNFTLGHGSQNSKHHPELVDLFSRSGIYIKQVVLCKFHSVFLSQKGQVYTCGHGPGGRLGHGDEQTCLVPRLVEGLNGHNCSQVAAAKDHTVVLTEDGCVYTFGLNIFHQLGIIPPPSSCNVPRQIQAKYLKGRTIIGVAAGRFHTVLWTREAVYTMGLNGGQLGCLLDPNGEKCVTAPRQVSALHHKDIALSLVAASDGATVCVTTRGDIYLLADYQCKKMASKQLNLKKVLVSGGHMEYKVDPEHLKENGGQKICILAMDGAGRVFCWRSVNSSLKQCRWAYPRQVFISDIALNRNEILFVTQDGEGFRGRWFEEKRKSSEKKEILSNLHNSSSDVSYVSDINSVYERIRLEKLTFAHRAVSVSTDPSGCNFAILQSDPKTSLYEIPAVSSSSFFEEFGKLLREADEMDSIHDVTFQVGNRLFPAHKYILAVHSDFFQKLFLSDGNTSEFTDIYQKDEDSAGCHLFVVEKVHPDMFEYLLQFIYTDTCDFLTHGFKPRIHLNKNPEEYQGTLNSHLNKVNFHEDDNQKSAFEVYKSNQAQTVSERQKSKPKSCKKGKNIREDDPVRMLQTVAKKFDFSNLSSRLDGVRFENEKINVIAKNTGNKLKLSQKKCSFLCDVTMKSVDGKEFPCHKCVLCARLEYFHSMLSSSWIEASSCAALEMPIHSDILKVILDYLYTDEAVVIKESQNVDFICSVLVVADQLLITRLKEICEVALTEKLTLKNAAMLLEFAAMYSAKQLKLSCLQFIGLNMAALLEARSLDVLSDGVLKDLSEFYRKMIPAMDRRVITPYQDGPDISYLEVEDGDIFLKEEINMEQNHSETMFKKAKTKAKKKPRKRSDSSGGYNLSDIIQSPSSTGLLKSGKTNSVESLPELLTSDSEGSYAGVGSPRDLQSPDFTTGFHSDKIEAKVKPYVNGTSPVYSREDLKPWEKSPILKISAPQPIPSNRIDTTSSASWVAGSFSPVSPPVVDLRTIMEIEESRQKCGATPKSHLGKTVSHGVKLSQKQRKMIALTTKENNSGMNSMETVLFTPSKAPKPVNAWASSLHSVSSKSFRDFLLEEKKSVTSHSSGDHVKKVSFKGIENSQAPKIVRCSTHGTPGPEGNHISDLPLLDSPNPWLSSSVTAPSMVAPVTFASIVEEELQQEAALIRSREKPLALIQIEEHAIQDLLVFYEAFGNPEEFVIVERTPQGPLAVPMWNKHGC
UniProt P52789: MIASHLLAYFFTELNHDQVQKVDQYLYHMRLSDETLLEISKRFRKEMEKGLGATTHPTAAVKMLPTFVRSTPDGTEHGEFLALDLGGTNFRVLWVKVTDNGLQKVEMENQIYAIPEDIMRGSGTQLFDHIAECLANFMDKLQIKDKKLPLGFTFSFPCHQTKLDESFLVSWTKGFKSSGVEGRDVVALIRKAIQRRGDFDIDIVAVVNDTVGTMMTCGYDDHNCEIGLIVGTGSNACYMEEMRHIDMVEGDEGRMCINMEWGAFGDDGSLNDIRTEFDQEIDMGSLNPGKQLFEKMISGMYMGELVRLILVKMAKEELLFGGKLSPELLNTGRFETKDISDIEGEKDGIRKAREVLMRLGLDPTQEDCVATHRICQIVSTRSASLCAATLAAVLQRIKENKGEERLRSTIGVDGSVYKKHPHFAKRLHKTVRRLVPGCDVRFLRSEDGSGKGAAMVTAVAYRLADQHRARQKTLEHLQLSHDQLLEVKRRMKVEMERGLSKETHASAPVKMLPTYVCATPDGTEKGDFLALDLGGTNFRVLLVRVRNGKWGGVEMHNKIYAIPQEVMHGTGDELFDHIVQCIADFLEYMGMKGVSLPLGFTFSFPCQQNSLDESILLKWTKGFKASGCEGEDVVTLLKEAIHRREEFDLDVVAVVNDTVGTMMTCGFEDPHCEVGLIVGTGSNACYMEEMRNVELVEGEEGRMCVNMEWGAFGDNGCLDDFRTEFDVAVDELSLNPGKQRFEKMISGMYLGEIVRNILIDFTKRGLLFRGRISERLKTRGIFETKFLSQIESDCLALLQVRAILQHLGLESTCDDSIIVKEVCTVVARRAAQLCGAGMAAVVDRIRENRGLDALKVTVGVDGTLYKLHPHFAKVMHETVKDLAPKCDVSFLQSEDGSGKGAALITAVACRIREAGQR

What was measured:
Test in all cases: log2 fold change, soluble protein after heating vs DMSO (PISA); higher = thermal stabilisation; K562 cells, 10 uM, 30 min; active = over 0.2 and 3.5 SD of the protein, either way, in both replicates (recomputed)
[1] = compound: CC[C@@H]1C(=O)N(C)c2cnc(Nc3ccc(C(=O)NC4CCN(C)CC4)cc3OC)nc2N1C1CCCC1
Outline: (§1)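 Thermal stability values are relative to control samples and come from duplicates. They are expressed as log2 fold changes. For measurement, K562 cells (2×10^6 cells/mL) received 10 μM compound for 30 min, and aliquots were heated for 3 min over 48°C-58°C, pooled, and extracted at 4°C in PBS with 0.5% NP-40. Soluble protein, the supernatant after 21,000xg for 90 min, was quantified by TMTpro 16plex LC-MS/MS with equalised channel sums.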

volasertib = compound: CC[C@@H]1C(=O)N(C)c2cnc(Nc3ccc(C(=O)N[C@H]4CC[C@H](N5CCN(CC6CC6)CC5)CC4)cc3OC)nc2N1C(C)C [volasertib]
Outline: as §1

[2] = compound: CC[C@H](C)N1C=C(C2=C(C=C(C=C21)C3=CN=C(C=C3)N4CCNCC4)C(=O)NCC5=C(C=C(NC5=O)C)C)C
Outline: as §1

epoxomicin = compound: CC[C@H](C)[C@@H](C(=O)N[C@@H]([C@@H](C)O)C(=O)N[C@@H](CC(C)C)C(=O)[C@]1(CO1)C)NC(=O)[C@H]([C@@H](C)CC)N(C)C(=O)C [epoxomicin]
Outline: as §1

[3] = compound: CCn1c(C(=O)N(C2CC2)C2CC2)cc2c3c(ncn3C)c(Nc3cc(C)n(C)n3)nc21
Outline: as §1

[4] = compound: CCn1cc(-c2ccnc3[nH]c(-c4cccc(CN(C)C)c4)cc23)c(-c2ccc(NC(=O)N(C)C)cc2)n1
Outline: as §1

[5] = compound: CN(C)CC(=O)Nc1ccc2[nH]c(=O)c3ccccc3c2c1
Outline: as §1

rosiglitazone = compound: CN(CCOC1=CC=C(C=C1)C[C@H]2C(=O)NC(=O)S2)C3=CC=CC=N3 (racemic) [rosiglitazone]
Outline: as §1

[6] = compound: CN1C2=C(C3=C1C(=O)N(N=C3)CC4=CC(=CC=C4)N)SC(=C2)S(=O)C
Outline: as §1

[7] = compound: CN1CCC(CNc2ccc3ncc(-c4cccc(OC(F)(F)F)c4)n3n2)CC1
Outline: as §1

saracatinib = compound: CN1CCN(CCOc2cc(OC3CCOCC3)c3c(Nc4c(Cl)ccc5c4OCO5)ncnc3c2)CC1 [saracatinib]
Outline: as §1

Tubastatin A = compound: CN1CCc2c(c3ccccc3n2Cc2ccc(C(=O)NO)cc2)C1 [Tubastatin A]
Outline: as §1

[8] = compound: CNC(=O)C1=CC=CC=C1NC2=NC(=NC=C2Cl)NC3=C(C=C(C=C3)N4CCOCC4)OC
Outline: as §1

defactinib = compound: CNC(=O)c1ccc(Nc2ncc(C(F)(F)F)c(NCc3nccnc3N(C)S(C)(=O)=O)n2)cc1 [defactinib]
Outline: as §1

rucaparib = compound: CNCc1ccc(-c2[nH]c3cc(F)cc4c3c2CCNC4=O)cc1 [rucaparib]
Outline: as §1

[9] = compound: CNc1nc(-c2ccc3c(N)n[nH]c3c2)cc(N2C[C@@H](C(=O)NC3CCCCC3)CC[C@H]2C)n1
Outline: as §1

encorafenib = compound: COC(=O)N[C@@H](C)CNc1nccc(-c2cn(C(C)C)nc2-c2cc(Cl)cc(NS(C)(=O)=O)c2F)n1 [encorafenib]
Outline: as §1

[10] = compound: COC(=O)[C@H](CCSC)NC(=O)C1=C(C=C(C=C1)NC[C@H](CS)N)C2=CC=CC=C2
Outline: as §1

sotrastaurin = compound: CN1CCN(c2nc(C3=C(c4c[nH]c5ccccc45)C(=O)NC3=O)c3ccccc3n2)CC1 [sotrastaurin]
Outline: as §1

alvocidib = compound: CN1CC[C@H](c2c(O)cc(O)c3c(=O)cc(-c4ccccc4Cl)oc23)[C@H](O)C1 [alvocidib]
Outline: as §1

Measured: log2 fold change

HIF1AN (UniProt Q9NWT6)
inactive: [1] -0.041 | volasertib -0.016 | [2] 0.04 | epoxomicin 0.088 | [3] 0.022 | [4] 0.097 | [5] -0.053 | rosiglitazone 0.011 | [6] -0.097 | [7] -0.036 | saracatinib 0.024 | Tubastatin A 0.15 | [8] 0.032 | defactinib -0.06 | rucaparib 0.049 | [9] 0.009 | encorafenib -0.016 | [10] 0.05

HMGCR isoform 3 (UniProt P04035)
inactive: [1] -0.007 | volasertib -0.019 | [2] -0.07 | [4] 0.015 | [5] -0.023 | [6] -0.009 | [7] 0.272 | saracatinib 0.002 | sotrastaurin -0.287 | [8] -0.133 | defactinib -0.004 | rucaparib -0.208 | [9] -0.024 | encorafenib 0.094 | [10] 0.146
active: epoxomicin 0.356 | Tubastatin A 0.33

HOOK3 (UniProt Q86VS8)
active: volasertib -0.395 | [7] -0.358
inactive: [1] -0.151 | [2] 0.034 | epoxomicin 0.004 | [4] -0.017 | [5] 0.005 | [6] 0.031 | saracatinib -0.016 | sotrastaurin -0.166 | Tubastatin A -0.019 | [8] 0.013 | defactinib -0.005 | rucaparib -0.063 | [9] -0.008 | encorafenib 0.022 | [10] -0.007

IBTK (UniProt Q9P2D0)
inactive: [1] 0.031 | volasertib -0.116 | [2] 0.003 | epoxomicin -0.327 | [4] 0.052 | rosiglitazone 0.005 | [6] 0.306 | [7] -0.013 | saracatinib -0.039 | sotrastaurin -0.23 | alvocidib 0.176 | Tubastatin A -0.026 | rucaparib 0.512 | [9] -0.027 | encorafenib -0.108

HK2 (UniProt P52789)
active: volasertib -0.813 | [8] -0.334
inactive: [1] -0.156 | [2] 0.086 | epoxomicin 0.049 | [4] 0.016 | [5] -0.001 | [6] -0.028 | [7] -0.038 | saracatinib 0.008 | sotrastaurin -0.075 | Tubastatin A -0.006 | defactinib -0.08 | rucaparib -0.011 | [9] -0.045 | encorafenib 0.026 | [10] -0.005
